According to patent US8541373B2, “BChE albumin fusions for the treatment of cocaine abuse” (priority 2009, dated 2013):

Tested on: cocaine
Test: AlbuBChE PK/PD analysis, sigmoidal inhibitory effect Emax model (cocaine AUC)
Conditions: cynomolgus monkeys
From the text: AlbuBChE PK/PD relationship was defined using the computer software WinNonlin Professional (Version 4.0.1 Pharsight Corporation, USA). Specifically the direct sigmoidal inhibitory Effect Emax model was use in which maximum effect (Emax) as measured by cocaine AUC was assumed at AlbuBChE concentration of zero. The model equation can be described as follows: Inhibitory Effect Sigmoid Emax, C=0 at Emax, C=infinity at Eo E=Emax−(Emax−E0)*(C**Gamma/(C**Gamma+EC50**Gamma))
The PD parameter used in the analysis was cocaine AUC. PK parameters used in the model were AlbuBChE plasma concentrations at 2, 48, 96, 120, and 240 hr post-AlbuBChE dose. Due to the fact that AlbuBChE concentration was not measured at 2 hr post-AlbuBChE dose, the concentration at 3 hr postdose was used in the analysis with the assumptions that AlbuBChE concentration at 3 hr post AlbuBChE dose may reflect AlbuBChE conc. at 2 hr post AlbuBChE dose.

Question: How did the “Gamma (PK/PD model)” value turn out when AlbuBChE was run?
Answer: 0.708

Question: And the “E0 (PK/PD model)” value (cocaine AUC)?
Answer: 1096 ng·min/mL

Question: What about the “Emax (PK/PD model)” value (cocaine AUC at AlbuBChE concentration of zero) of the same substance?
Answer: 12909 ng·min/mL
